According to article PMC12752355:
These are yes or no findings as the source states them, for the method shown. Binding seen in cells or lysates may run through a third protein. Some binding calls cover weakened binding; strength is not graded here.

The chains behind the UniProt entries cited, without tags or fusion partners.
UniProt Q09472: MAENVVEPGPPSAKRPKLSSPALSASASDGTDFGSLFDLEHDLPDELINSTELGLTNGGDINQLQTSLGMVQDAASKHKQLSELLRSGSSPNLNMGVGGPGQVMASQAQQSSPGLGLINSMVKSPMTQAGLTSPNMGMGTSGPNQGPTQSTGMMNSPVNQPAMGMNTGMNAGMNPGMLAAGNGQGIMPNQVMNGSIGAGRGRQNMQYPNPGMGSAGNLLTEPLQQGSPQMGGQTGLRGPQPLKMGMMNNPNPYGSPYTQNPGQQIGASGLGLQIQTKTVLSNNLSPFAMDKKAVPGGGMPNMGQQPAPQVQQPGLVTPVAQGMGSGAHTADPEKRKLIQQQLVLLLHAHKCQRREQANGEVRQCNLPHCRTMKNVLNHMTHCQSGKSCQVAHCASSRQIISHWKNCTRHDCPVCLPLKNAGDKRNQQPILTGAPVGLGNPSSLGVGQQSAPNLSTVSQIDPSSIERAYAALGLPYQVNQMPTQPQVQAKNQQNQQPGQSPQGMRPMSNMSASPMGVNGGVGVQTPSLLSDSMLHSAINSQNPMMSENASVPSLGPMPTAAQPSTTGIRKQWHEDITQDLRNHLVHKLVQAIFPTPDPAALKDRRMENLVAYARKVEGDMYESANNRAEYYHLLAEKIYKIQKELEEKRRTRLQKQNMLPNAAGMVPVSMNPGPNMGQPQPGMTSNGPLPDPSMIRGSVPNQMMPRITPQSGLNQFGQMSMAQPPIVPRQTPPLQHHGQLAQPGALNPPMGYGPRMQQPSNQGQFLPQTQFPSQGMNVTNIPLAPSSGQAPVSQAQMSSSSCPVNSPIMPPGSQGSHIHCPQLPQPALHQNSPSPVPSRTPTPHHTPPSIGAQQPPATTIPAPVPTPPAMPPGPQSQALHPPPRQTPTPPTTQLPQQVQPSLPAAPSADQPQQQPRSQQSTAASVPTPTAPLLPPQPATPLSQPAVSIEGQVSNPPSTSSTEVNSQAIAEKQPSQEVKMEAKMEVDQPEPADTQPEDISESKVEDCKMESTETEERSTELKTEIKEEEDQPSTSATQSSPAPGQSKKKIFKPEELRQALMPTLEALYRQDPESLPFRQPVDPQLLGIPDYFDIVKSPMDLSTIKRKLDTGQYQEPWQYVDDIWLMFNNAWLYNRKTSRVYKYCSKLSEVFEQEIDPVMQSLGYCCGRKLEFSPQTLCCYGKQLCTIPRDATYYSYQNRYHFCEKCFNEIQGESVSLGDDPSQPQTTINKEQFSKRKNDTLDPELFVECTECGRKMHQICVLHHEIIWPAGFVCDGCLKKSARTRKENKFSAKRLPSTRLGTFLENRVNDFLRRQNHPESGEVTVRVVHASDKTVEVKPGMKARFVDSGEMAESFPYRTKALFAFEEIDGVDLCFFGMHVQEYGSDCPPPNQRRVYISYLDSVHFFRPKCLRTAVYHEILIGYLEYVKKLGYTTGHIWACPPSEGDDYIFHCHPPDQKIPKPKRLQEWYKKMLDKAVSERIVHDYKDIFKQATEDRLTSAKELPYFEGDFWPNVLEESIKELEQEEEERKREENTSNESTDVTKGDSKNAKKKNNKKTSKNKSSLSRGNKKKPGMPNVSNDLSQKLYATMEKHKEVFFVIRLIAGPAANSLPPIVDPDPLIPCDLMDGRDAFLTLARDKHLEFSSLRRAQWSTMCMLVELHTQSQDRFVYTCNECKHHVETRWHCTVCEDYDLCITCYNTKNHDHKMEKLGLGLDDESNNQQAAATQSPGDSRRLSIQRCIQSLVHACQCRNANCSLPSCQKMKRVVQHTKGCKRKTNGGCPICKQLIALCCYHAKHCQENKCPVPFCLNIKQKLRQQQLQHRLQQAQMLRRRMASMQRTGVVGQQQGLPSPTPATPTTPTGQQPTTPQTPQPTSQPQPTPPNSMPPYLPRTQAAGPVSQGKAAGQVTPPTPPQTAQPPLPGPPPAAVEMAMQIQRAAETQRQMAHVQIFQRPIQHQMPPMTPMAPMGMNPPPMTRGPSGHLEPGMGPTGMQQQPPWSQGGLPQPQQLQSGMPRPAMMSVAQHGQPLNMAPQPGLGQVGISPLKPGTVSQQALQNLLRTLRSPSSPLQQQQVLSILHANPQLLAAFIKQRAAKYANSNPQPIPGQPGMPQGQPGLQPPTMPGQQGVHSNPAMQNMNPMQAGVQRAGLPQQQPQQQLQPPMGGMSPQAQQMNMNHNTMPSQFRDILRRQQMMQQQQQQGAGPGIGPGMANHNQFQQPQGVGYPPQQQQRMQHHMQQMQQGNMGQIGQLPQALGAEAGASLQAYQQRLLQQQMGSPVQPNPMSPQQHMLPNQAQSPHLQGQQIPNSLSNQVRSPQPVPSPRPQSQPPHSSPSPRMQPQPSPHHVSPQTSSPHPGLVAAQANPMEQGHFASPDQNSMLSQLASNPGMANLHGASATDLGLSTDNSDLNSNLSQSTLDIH

Legend:
[1] = molecular target: P300 (human (endogenous in EJ-1)) (UniProt Q09472); test: co-IP; EJ-1 cell lysate (IP lysis buffer with PMSF); immunoprecipitated with anti-P300 antibody or control IgG and Protein A/G agarose beads overnight at 4 C, six washes; western blot for HNRNPA1
[2] = molecular target: P300 (in HEK-293 T cells) (UniProt Q09472); test: co-IP; HEK-293 T cell lysate (IP lysis buffer with PMSF), antibody and Protein A/G agarose beads overnight at 4 C; which protein was precipitated is not told (Figure S7B)

binding [1]	binding [2]	Substance
binds		heterogeneous nuclear ribonucleoprotein A1 (HNRNPA1) (from UniProt P09651-1 1-372)
	binds	HNRNPA1 (in HEK-293 T cells) (from UniProt P09651-1 1-372)
